{"sequences": {"note": "Chains of the proteins cited; added tags and fusions are not shown.", "UniProt O95863": "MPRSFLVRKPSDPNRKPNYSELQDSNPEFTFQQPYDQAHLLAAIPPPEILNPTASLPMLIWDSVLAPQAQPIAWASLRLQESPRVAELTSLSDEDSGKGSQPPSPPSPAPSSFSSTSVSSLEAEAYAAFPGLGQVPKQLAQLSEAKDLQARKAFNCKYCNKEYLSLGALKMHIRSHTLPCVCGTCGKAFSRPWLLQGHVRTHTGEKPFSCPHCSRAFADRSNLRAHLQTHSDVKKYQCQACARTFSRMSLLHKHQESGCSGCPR"}, "source": "paper PMC8956710", "molecules": {"B1": {"name": "Flag-STYX (serine/threonine/tyrosine interacting protein) (protein, UniProt Q8WUJ0 1-223)", "chain": "MEDVKLEFPSLPQCKEDAEEWTYPMRREMQEILPGLFLGPYSSAMKSKLPVLQKHGITHIICIRQNIEANFIKPNFQQLFRYLVLDIADNPVENIIRFFPMTKEFIDGSLQMGGKVLVHGNAGISRSAAFVIAYIMETFGMKYRDAFAYVQERRFCINPNAGFVHQLQEYEAIYLAKLTIQMMSPLQIERSLSVHSGTTGSLKRTHEEEDDFGTMQVATAQNG"}, "B2": {"name": "Myc-FBXO31 (protein, UniProt Q5XUX0 1-539)", "chain": "MAVCARLCGVGPSRGCRRRQQRRGPAETAAADSEPDTDPEEERIEASAGVGGGLCAGPSPPPPRCSLLELPPELLVEIFASLPGTDLPSLAQVCTKFRRILHTDTIWRRRCREEYGVCENLRKLEITGVSCRDVYAKLLHRYRHILGLWQPDIGPYGGLLNVVVDGLFIIGWMYLPPHDPHVDDPMRFKPLFRIHLMERKAATVECMYGHKGPHHGHIQIVKKDEFSTKCNQTDHHRMSGGRQEEFRTWLREEWGRTLEDIFHEHMQELILMKFIYTSQYDNCLTYRRIYLPPSRPDDLIKPGLFKGTYGSHGLEIVMLSFHGRRARGTKITGDPNIPAGQQTVEIDLRHRIQLPDLENQRNFNELSRIVLEVRERVRQEQQEGGHEAGEGRGRQGPRESQPSPAQPRAEAPSKGPDGTPGEDGGEPGDAVAAAEQPAQCGQGQPFVLPVGVSSRNEDYPRTCRMCFYGTGLIAGHGFTSPERTPGVFILFDEDRFGFVWLELKSFSLYSRVQATFRNADAPSPQAFDEMLKNIQSLTS"}, "B3": {"name": "STYX (endogenous) (protein, UniProt Q8WUJ0 1-223)", "chain": "B1 chain"}}, "key": {"Myc-FBXO31 [1]": {"target": "T1, Myc-FBXO31 (UniProt Q5XUX0)", "T1 sequence": "B2 chain", "assay": "co-IP; SGC-7901 cells co-transfected with expression vectors for 48 h, lysed with IP lysis buffer; about 1 mg total protein with 5 µg anti-Flag or anti-Myc antibody or IgG overnight at 4 °C, Protein A/G PLUS agarose beads, western blot"}, "Myc-FBXO31 [2]": {"target": "T1, Myc-FBXO31", "assay": "co-IP; SGC-7901 cells co-transfected with expression vectors for 48 h, lysed with IP lysis buffer; about 1 mg total protein with 5 µg anti-Flag or anti-Myc antibody or IgG overnight at 4 °C, Protein A/G PLUS agarose beads, western blot", "remark": "listed apart in the source"}, "[3]": {"target": "T2, Flag-STYX (serine/threonine/tyrosine interacting protein) (UniProt Q8WUJ0)", "T2 sequence": "B1 chain", "assay": "co-IP; SGC-7901 cells co-transfected with expression vectors for 48 h, lysed with IP lysis buffer; about 1 mg total protein with 5 µg anti-Flag or anti-Myc antibody or IgG overnight at 4 °C, Protein A/G PLUS agarose beads, western blot"}, "[4]": {"target": "T3, FBXO31 (endogenous) (human (endogenous in 293T)) (UniProt Q5XUX0)", "T3 sequence": "B2 chain", "assay": "co-IP; endogenous proteins in 293T cells lysed with IP lysis buffer; 5 µg antibody against FBXO31 or STYX or IgG, Protein A/G PLUS agarose beads, western blot"}}, "note": "Where two headings read alike, the source gives them in different places. No constants are given. Whether binding was seen depends on the method and setting. Binding seen in cells or lysates may run through a third protein. Some results given as binding are weak or reduced against the parent protein; the word gives no strength. For some of these results: Sequences can lack the tags named with a protein.", "data": [{"molecule": "Snail1 (from UniProt O95863 1-264)", "values": [{"measurement": "binding", "setting": "Myc-FBXO31 [1]", "value": "binds"}]}, {"molecule": "B1", "values": [{"measurement": "binding", "setting": "Myc-FBXO31 [2]", "value": "binds"}]}, {"molecule": "B2", "values": [{"measurement": "binding", "setting": "[3]", "value": "binds"}]}, {"molecule": "B3", "values": [{"measurement": "binding", "setting": "[4]", "value": "binds"}]}]}
